# Data reported in patent US20110251229A1 (priority 2007, published 2011).
# At least one compound was matched to its structure with a doubt left.
# Tested on: morphine dependence
# Test: Morphine escalating dependence regimen, naloxone precipitated withdrawal
# Assay type: in vivo
# Conditions: co-administration with escalating dependence regimen of morphine
smiles,measurement,value
"CC(C)C(=O)c1c(C(C)C)nn2ccccc12 [AV411, ibudilast]",naloxone precipitated withdrawal behaviors,significantly reduced
